The target in this test is T1, TMEM16A (human (endogenous in HEK293T)) (UniProt Q5XXA6).
T1 sequence: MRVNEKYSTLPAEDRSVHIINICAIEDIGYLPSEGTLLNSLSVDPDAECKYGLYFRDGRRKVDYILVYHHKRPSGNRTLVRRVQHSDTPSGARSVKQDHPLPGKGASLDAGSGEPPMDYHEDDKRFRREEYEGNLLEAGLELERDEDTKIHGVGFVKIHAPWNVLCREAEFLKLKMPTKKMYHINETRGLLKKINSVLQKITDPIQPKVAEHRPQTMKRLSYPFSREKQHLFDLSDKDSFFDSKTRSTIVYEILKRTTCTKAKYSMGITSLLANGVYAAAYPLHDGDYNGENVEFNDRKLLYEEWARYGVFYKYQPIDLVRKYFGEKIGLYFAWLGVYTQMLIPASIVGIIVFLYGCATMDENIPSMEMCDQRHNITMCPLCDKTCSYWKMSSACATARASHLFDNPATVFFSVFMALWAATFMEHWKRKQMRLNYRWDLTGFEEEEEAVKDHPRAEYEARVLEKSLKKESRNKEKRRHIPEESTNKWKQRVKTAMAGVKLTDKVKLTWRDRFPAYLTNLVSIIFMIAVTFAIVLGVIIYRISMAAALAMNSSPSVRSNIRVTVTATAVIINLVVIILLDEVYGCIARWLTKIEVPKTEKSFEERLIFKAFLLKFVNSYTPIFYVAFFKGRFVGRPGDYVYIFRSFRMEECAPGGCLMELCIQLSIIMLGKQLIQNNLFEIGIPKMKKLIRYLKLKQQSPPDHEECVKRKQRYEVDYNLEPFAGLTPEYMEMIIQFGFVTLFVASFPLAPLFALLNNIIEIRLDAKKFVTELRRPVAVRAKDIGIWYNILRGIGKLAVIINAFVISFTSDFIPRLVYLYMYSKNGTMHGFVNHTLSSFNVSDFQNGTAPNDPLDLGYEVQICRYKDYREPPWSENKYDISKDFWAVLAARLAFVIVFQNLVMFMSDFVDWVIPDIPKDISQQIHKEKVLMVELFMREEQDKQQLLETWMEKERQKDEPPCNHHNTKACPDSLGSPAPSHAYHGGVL
The experiment in a line: flow cytometry on cells; intact HEK293T cells (4 × 10^5 cells/sample, FcR blocked) stained with N-CLCA1/SA-PE tetramers (1:50) in PBS with 1% BSA at 4°C; SA-PE alone as background; with or without pre-incubation with anti-TMEM16A antibody S-20 (1:10) or control antibodies C-5 and G-19; only the binder purified.

Experimental findings from article PMC4360653 are described below.

Results are given in words; binding and its absence hold for the method and conditions named. Some entries that bind do so weakly or less than the wild type.

B1: N-terminal fragment of CLCA1 (22–694; N-CLCA1), biotinylated and coupled to SA-PE (domain or fragment, UniProt A8K7I4 22-694)
chain: NSLIQLNNNGYEGIVVAIDPNVPEDETLIQQIKDMVTQASLYLLEATGKRFYFKNVAILIPETWKTKADYVRPKLETYKNADVLVAESTPPGNDEPYTEQMGNCGEKGERIHLTPDFIAGKKLAEYGPQGRAFVHEWAHLRWGVFDEYNNDEKFYLSNGRIQAVRCSAGITGTNVVKKCQGGSCYTKRCTFNKVTGLYEKGCEFVLQSRQTEKASIMFAQHVDSIVEFCTEQNHNKEAPNKQNQKCNLRSTWEVIRDSEDFKKTTPMTTQPPNPTFSLLQIGQRIVCLVLDKSGSMATGNRLNRLNQAGQLFLLQTVELGSWVGMVTFDSAAHVQNELIQINSGSDRDTLAKRLPAAASGGTSICSGLRSAFTVIRKKYPTDGSEIVLLTDGEDNTISGCFNEVKQSGAIIHTVALGPSAAQELEELSKMTGGLQTYASDQVQNNGLIDAFGALSSGNGAVSQRSIQLESKGLTLQNSQWMNGTVIVDSTVGKDTLFLITWTMQPPQILLWDPSGQKQGGFVVDKNTKMAYLQIPGIAKVGTWKYSLQASSQTLTLTVTSRASNATLPPITVTSKTNKDTSKFPSPLVVYANIRQGASPILRASVTALIESVNGKTVTLELLDNGAGADATKDDGVYSRYFTTYDTNGRYSVKVRALGGVNAARRRVIPQQSG
modifications: biotin on the C-terminal BirA biotin ligase recognition motif
For B1, the binding entry is listed as “binds”.
